Our source for the cell number change and AC50 values is PubChem BioAssay AID2685 (National Center for Advancing Translational Sciences (NCATS), 2010).

The experiment is described as follows: qHTS Assay for Lipid Storage Modulators in Drosophila S3 Cells.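 For cell number change: cells counted by Cell Tracker Red CMTPX staining in the red channel.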 Conditions: BODIPY lipid droplet fluorescence, 18-24 h; for cell number change: measured here: cell count max response, cells fed with added oleic acid. Put shortly:
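Drosophila S3 cells got compounds at several concentrations plus oleic acid (400 uM solution). Laser-scanning cytometry with 488 nm excitation read lipid droplets at 500-530 nm and cells at 575-640 nm. Percent activity was relative to 20 uM Triacsin C.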
(Quantitative high-throughput screening tests each substance at several concentrations.)

The mark [1] stands for this setting: measured here: lipid fluorescence (Fed channel) AC50, cells fed with added oleic acid.
The mark [2] stands for this setting: measured here: cell number channel AC50, cells fed with added oleic acid.

Some of the results follow. The main result of the screen is listed elsewhere. These columns were measured beside it and carry no call. The list favours compounds with an active or inconclusive main result. Potencies come from curve fits of mixed quality, noted in brackets.

As a reminder, the AC50 is the concentration at which the activity in the assay is half-maximal. Consider `Cc1ccc2nc(-c3ccc(NC(=O)CCS(=O)(=O)c4ccccc4)cc3)sc2c1`, for which the cell number change is -6.49%. In addition, the AC50 under setting [1] was 29.1 µM [falling, single point].
For `CCCCn1c(-c2cccnc2)nc2cc3[nH]c(=O)c(C(C)C)nc3cc21`, the cell number change was -13.9%.
In the case of `Cc1ccc(C(=O)Nc2cccc(-c3cnc4ccccc4n3)c2)cc1`, the cell number change is 6.07%. In addition, under setting [1], the half-maximal activity concentration (AC50) was 0.116 µM [rising, full curve, poor fit].
For the molecule `O=P(C(=NCCO)NO)(N1CCOCC1)N1CCOCC1`, the cell number change was 12.4%. Moreover, the AC50 under setting [1] was 29.1 µM [falling, single point].
On to `Cc1cc(C)nc(/N=c2/ssnc2Cl)c1`, for which the cell number change was -43.2%. In addition, the half-maximal activity concentration (AC50) under setting [2] is 25.9 µM [falling, partial curve]. For the same molecule, under setting [1], the AC50 was 32.6 µM [falling, partial curve].
Regarding `CCSc1nnc(NC(=O)C2Cc3ccccc3CN2S(=O)(=O)CC)s1` (centres undefined), the AC50 under setting [2] was 6.51 µM [rising, single point] and the AC50 under setting [1] was 6.51 µM [rising, single point].
As for `O=C1c2nccnc2C(=O)N1c1ccc(C(F)(F)F)cc1`, the cell number change is -37.7%. For the same molecule, the concentration at half-maximal activity (AC50) under setting [2] was 0.184 µM [falling, full curve].
In the case of `N#CC1=C(N)N(c2ccccc2Sc2ccccc2)C(=O)C1`, the cell number change was -5.03%.
In the case of `COc1cccc(CNC(=O)Cn2ccc([N+](=O)[O-])n2)c1`, the cell number change is 7.77%. Further, the AC50 under setting [1] is 1.84 µM [rising, partial curve].
As for `COc1ccccc1-c1noc(CCCC(=O)N2CCOCC2)n1`, the cell number change was found to be 30.7%. Also, the AC50 under setting [2] was 13 µM [rising, partial curve, poor fit].
As for `CCc1ccc(C(=O)N/N=C/c2cccc3ccccc23)nc1`, the cell number change is 1.75%. Further, the AC50 under setting [1] is 7.31 µM [rising, partial curve, poor fit].
Consider `COc1ccc(Br)cc1CN(C)C(=O)c1cc(Cl)c2c(c1)OCCO2`, for which the cell number change worked out at 15.7%.
With `CCC(=O)Nc1nonc1-c1nc2ccccc2n1CCC(C)C`, the cell number change is 14.9%. Besides, the concentration at half-maximal activity (AC50) under setting [1] is 4.11 µM [rising, partial curve, poor fit].
In the case of `O=C(CSc1cn[nH]n1)Nc1nc2ccccc2s1`, the cell number change was -2.63%. For the same molecule, the AC50 under setting [1] was 0.562 µM [falling, full curve].
As for `CCOC(=O)C1CCN(C(=S)Nc2cccc(C)c2)CC1`, the cell number change is -84.1%. Also, the AC50 under setting [2] was 29.1 µM [falling, single point].
For `CC(C)CCN1CCN(Cc2coc3ccccc3c2=O)CC1CCO` (centres undefined), the cell number change came out at 19.8%. For the same molecule, the AC50 under setting [1] is 29.1 µM [rising, single point].
For `O=C1NCCCC1C(=O)Nc1cccc(C(F)(F)F)c1` (centres undefined), the cell number change is 5.35%. The AC50 under setting [1] was 0.82 µM [falling, full curve, poor fit].
Take `Cc1ccccc1C(=O)NNC(=O)/C=C/c1ccccc1`: the cell number change was 24.2%. The half-maximal activity concentration (AC50) under setting [2] was 0.0291 µM [rising, full curve, poor fit].
As for `CC1CCN(S(=O)(=O)c2ccc(C(=O)N3CCCC(C(F)(F)F)C3)cc2)CC1` (centres undefined), the cell number change is 6.83%.
As to `O=C(CCCn1c(=O)c2sccc2n(CC(=O)NCc2ccco2)c1=O)NCc1ccco1`, the half-maximal activity concentration (AC50) under setting [2] is 2.06 µM [rising, partial curve].
Take `COc1ccc(-c2cc(N3C(=O)Nc4ccccc4N3O)n[nH]2)c(OC)c1`: the cell number change was 21.1%. Also, under setting [1], the concentration at half-maximal activity (AC50) was 13 µM [rising, single point].
`COc1cccc(N(CC(=O)N2CCN(C)CC2)S(=O)(=O)c2ccc(C)cc2)c1`: the cell number change was determined as 0.487%. Moreover, the AC50 under setting [1] was 16.4 µM [falling, partial curve].
`COc1cccc(C(=O)CN2C3=NCCCN3c3ccccc32)c1`: the cell number change came out at 26.7%. Besides, the AC50 under setting [2] is 4.11 µM [falling, single point]. The AC50 under setting [1] was 2.31 µM [rising, partial curve].
Turning to `CC(=O)c1cccc(Nc2nc(-c3ccccc3)nc3ccccc23)c1`, the cell number change was 18.2%. Besides, the half-maximal activity concentration (AC50) under setting [1] was 23.1 µM [falling, single point].
In the case of `CC(=O)Nc1cccc(NC(=O)C(=O)Nc2ccc3c(c2)N(C(=O)C2CC2)CCC3)c1`, the cell number change stood at 68.5%. The AC50 under setting [2] is 14.6 µM [rising, partial curve].
Regarding `C[C@H](NC(=O)c1nc[nH]c1C(=O)N1CCNCC1)C(=O)OCc1ccccc1`, the cell number change is -51.7%. In addition, the AC50 under setting [2] was 4.11 µM [falling, partial curve]. For the same molecule, the half-maximal activity concentration (AC50) under setting [1] is 6.51 µM [falling, partial curve].
`COc1ccccc1CN1CC(C(=O)NCc2cccc(Cl)c2)CCC1=O` (centres undefined): the cell number change was -12.9%.
`CC(=O)Oc1ccc(C(=O)Cc2ccccn2)c(O)c1`: the cell number change amounted to 27.9%. Moreover, the AC50 under setting [2] was 0.651 µM [rising, full curve]. Besides, the concentration at half-maximal activity (AC50) under setting [1] was 6.51 µM [rising, single point].
In the case of `CC(=O)N1CCCc2cc(S(=O)(=O)N3CCCC3)ccc21`, the cell number change was -0.403%.
For the molecule `CCCN1CC23C=CC(O2)C(C(=O)O)C3C1=O` (centres undefined), the cell number change was -15.8%. Also, under setting [1], the half-maximal activity concentration (AC50) was 0.0731 µM [falling, full curve, poor fit].
Regarding `Cc1ccc(/C=N/NC(=O)c2cc(-c3ccncc3)nc3ccccc23)o1`, the cell number change was -8.01%.
`CCc1ccc(NC(=O)Cn2cnc3sc(C)c(S(=O)(=O)N4CCOCC4)c3c2=O)cc1`: the cell number change was -8.73%. The AC50 under setting [1] was 29.1 µM [rising, single point].
With `O=S(=O)(Cc1cc(Cl)nc(-c2ccccc2)n1)c1ccccc1`, the AC50 under setting [1] was 0.291 µM [rising, single point].
For the molecule `O=C(Cc1n[nH]c(=O)c2ccccc12)NCc1ccccn1`, the cell number change is 0.255%. The AC50 under setting [1] is 6.51 µM [falling, partial curve, poor fit].
For the molecule `C=CCN(c1nc(C)cc(OC)n1)S(=O)(=O)c1ccc(C)cc1`, the cell number change came to 2.2%. Further, the AC50 under setting [1] is 32.6 µM [falling, single point].
As to `Brc1ccc(-c2nc(-c3ccncc3)no2)o1`, the half-maximal activity concentration (AC50) under setting [2] was 1.84 µM [rising, partial curve].
Consider `COc1ccc(-c2csc(N=C(N)N)n2)cc1`, for which the AC50 under setting [1] was 6.51 µM [rising, single point].
With `NC(=O)COC(=O)c1ccccc1Oc1ccccc1`, the cell number change was determined as 23.8%.
In the case of `Cc1cc(C)c(N2C(=NC(=O)CCCC(=O)O)SC3CS(=O)(=O)CC32)c(C)c1` (centres undefined), the cell number change is -12.4%. The AC50 under setting [1] was 2.59 µM [falling, single point].
Regarding `O=C(CN1CCCCCC1)N/N=C/c1ccc2ccccc2c1`, the cell number change was determined as 50.9%. Moreover, the concentration at half-maximal activity (AC50) under setting [2] was 14.6 µM [rising, partial curve, poor fit].
Turning to `COc1ccc2ccccc2c1/C=N/NC(=O)c1ccc(C)nc1`, the cell number change worked out at 11.2%. In addition, the concentration at half-maximal activity (AC50) under setting [1] is 2.06 µM [falling, partial curve].
Consider `Cc1ccc(NC(=O)c2ccco2)c(NC(=O)C2CCCO2)c1` (centres undefined), for which the cell number change was -46.2%.
Consider `O=C(O)CCS(=O)(=O)c1nc(-c2cccs2)cc(C(F)(F)F)n1`, for which the cell number change was -47.8%. Further, under setting [2], the half-maximal activity concentration (AC50) is 32.6 µM [falling, single point]. For the same molecule, the AC50 under setting [1] was 23.1 µM [falling, single point].
In the case of `Cc1cc(C)n(S(=O)(=O)c2cccc([N+](=O)[O-])c2)n1`, the cell number change is -12.9%. Also, the AC50 under setting [1] was 29.1 µM [rising, single point].
Turning to `COc1ccc(-c2cc(C(=O)N3CCCC3)no2)cc1OC`, the cell number change was 1.3%.
Take `CC(C)[C@H](N)c1cn([C@@H](CO)C(=O)N2CCNCC2)nn1`: the cell number change is 9.29%. Besides, the AC50 under setting [1] was 14.6 µM [rising, partial curve].
On to `COc1ccc(OCCNS(=O)(=O)c2ccc3oc4ccccc4c3c2)cc1`, for which the cell number change was 6.09%.
Turning to `CCn1cc(-c2cc(C(=O)O)c3ccccc3n2)c(C)n1`, the cell number change was -10.6%. Further, under setting [1], the AC50 is 0.411 µM [rising, full curve, poor fit].
As for `O=C(CCCN1C(=O)[C@H]2CC=CC[C@H]2C1=O)NCc1nc(-c2ccc(Cl)cc2)no1`, the cell number change was found to be 12.5%. For the same molecule, under setting [1], the AC50 was 6.51 µM [rising, single point].
As to `CSc1ccccc1C(=O)N1CCCC(CNC(=O)c2ccc(F)cc2)C1` (centres undefined), the cell number change is -2.45%.
As for `COc1ccc(OCc2cc(C(=O)N(C)Cc3cc(C)no3)no2)c(Cl)c1`, the cell number change was -15%.
Turning to `COc1ccc(C2(c3ccc(OC)cc3)NC(=O)N(CC(=O)Nc3ccc(C(=O)N(C)C)cc3)C2=O)cc1`, the cell number change was -1.89%. Also, the AC50 under setting [1] is 29.1 µM [rising, single point].
With `Nc1c(C(=O)c2ccccc2)sc2nsc(SCCN3CCCC3)c12`, the cell number change was found to be 4.18%. Besides, the half-maximal activity concentration (AC50) under setting [1] was 20.6 µM [falling, single point].
On to `COc1ccccc1/C=C(/CC(=O)NCc1ccc2c(c1)OCO2)c1nc2ccccc2s1`, for which the cell number change worked out at 1.96%. The AC50 under setting [1] was 0.0651 µM [rising, full curve, poor fit].
`Cc1cc(Oc2ccc(=O)n(C)n2)nc(SCC(N)=O)n1`: the cell number change is 12.9%.
The same measure, in the same setting: the figure for `O=C(CCC1CCCN(C(=O)CCCc2ccccc2)C1)N1CCN(c2ccccn2)CC1` (centres undefined) is -5.68%.
On to `O=C(NCCCN1CCCC1=O)C1CCN(S(=O)(=O)N2CCOCC2)CC1`, for which the cell number change was -75.8%. Further, the half-maximal activity concentration (AC50) under setting [2] was 25.9 µM [falling, single point].
With `c1ccc2c(c1)nc(Nc1ccc3c(c1)OCO3)c1nnnn12`, the cell number change amounted to 152%. For the same molecule, the AC50 under setting [2] was 0.58 µM [rising, full curve]. In addition, the AC50 under setting [1] was 1.46 µM [rising, full curve].
For `CN(C)C(=O)C1Cc2ccccc2CN1S(=O)(=O)c1ccc(F)cc1` (centres undefined), the cell number change stood at 18.4%.
Consider `COC(=O)CSc1nc2ccc(N)cc2s1`, for which the AC50 under setting [1] is 6.51 µM [falling, single point].
Regarding `CC(C)(C)c1cc[n+](-c2[nH]c(=O)sc2/C=N/N=C(\[O-])c2ccccc2)cc1`, the cell number change came to 21%. Besides, the half-maximal activity concentration (AC50) under setting [1] is 29.1 µM [rising, single point].
As to `CC(C)SCc1nc2ccccc2[nH]1`, the cell number change was found to be 32.3%. Also, the half-maximal activity concentration (AC50) under setting [2] is 29.1 µM [rising, partial curve]. Also, under setting [1], the half-maximal activity concentration (AC50) is 0.651 µM [rising, full curve, poor fit].
`O=C(COC(=O)c1n[nH]c2ccccc12)c1cc(F)ccc1F`: the cell number change was -25.1%. For the same molecule, the concentration at half-maximal activity (AC50) under setting [2] was 3.26 µM [falling, single point]. For the same molecule, the AC50 under setting [1] is 2.91 µM [falling, partial curve, poor fit].
Consider `COc1ccc2c(Cl)c(-c3nnc(SCC(N)=O)n3C)sc2c1`, for which the cell number change is -77.1%. The AC50 under setting [2] is 7.31 µM [falling, partial curve]. Under setting [1], the AC50 was 2.31 µM [falling, partial curve].
For `CC(C)CN(C(=O)CN1C(=O)NC2(CCc3ccccc32)C1=O)C1CCS(=O)(=O)C1` (centres undefined), the cell number change is -28.6%. Also, under setting [2], the AC50 was 0.00461 µM [falling, full curve, poor fit]. Moreover, the concentration at half-maximal activity (AC50) under setting [1] is 0.00461 µM [falling, full curve, poor fit].
